{"source": "paper PMC8854633", "key": {"[1]": {"biological_target": "T1, Kdm6b N-terminal region (1-809 amino acids) (UniProt Q5NCY0)", "T1 sequence": "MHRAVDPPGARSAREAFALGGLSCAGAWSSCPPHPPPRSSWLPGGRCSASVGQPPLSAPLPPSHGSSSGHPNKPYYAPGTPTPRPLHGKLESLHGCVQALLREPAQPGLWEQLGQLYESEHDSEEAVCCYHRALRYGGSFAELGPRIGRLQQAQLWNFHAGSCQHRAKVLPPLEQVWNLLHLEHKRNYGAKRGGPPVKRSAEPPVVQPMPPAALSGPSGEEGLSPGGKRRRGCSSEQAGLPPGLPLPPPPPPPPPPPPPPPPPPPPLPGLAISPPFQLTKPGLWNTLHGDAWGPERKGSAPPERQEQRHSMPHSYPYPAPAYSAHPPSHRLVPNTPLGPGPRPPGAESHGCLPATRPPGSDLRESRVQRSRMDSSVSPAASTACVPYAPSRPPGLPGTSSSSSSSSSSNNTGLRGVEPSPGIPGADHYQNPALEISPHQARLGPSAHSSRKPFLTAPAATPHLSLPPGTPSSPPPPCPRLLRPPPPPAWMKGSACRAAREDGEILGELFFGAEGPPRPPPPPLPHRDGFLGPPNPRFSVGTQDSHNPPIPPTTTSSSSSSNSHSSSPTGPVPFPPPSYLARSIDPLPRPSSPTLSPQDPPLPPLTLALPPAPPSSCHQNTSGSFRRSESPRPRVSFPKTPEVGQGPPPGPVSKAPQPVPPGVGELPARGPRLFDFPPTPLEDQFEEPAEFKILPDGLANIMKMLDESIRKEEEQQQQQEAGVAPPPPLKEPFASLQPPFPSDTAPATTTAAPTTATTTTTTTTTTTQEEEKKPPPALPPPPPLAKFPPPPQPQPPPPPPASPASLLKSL", "test": "co-IP; HEK293 cells transfected with two constructs (Lipofectamine 2000), harvested after 48 h in lysis buffer (20 mM Tris-HCl pH 8.0, 120 mM NaCl, 1 mM EDTA, 0.5% NP-40, protease inhibitors); 2 ug antibody overnight, Protein A agarose 2 h at 4 °C; immunoblot with HA or Flag antibodies"}, "[2]": {"biological_target": "Kdm6b C-terminal region (672-1642 amino acids) (UniProt Q5NCY0)", "test": "co-IP; HEK293 cells transfected with two constructs (Lipofectamine 2000), harvested after 48 h in lysis buffer (20 mM Tris-HCl pH 8.0, 120 mM NaCl, 1 mM EDTA, 0.5% NP-40, protease inhibitors); 2 ug antibody overnight, Protein A agarose 2 h at 4 °C; immunoblot with HA or Flag antibodies"}, "Kdm6b": {"biological_target": "Kdm6b (UniProt Q5NCY0)", "test": "co-IP; as a1, but Kdm6b, Isl1 and Lhx3 co-expressed together in HEK293 cells"}}, "note": "No constants are given. Whether binding was seen depends on the method and setting. Binding seen in cells or lysates may run through a third protein. Some results given as binding are weak or reduced against the parent protein; the word gives no strength."}
{"binder": "Lhx3 (protein, UniProt P50481 1-400) MLLEAELDCHRERPGAPGASALCTFSRTPEIPMCAGCDQHILDRFILKALDRHWHSKCLKCSDCHVPLAERCFSRGESVYCKDDFFKRFGTKCAACQLGIPPTQVVRRAQDFVYHLHCFACVVCKRQLATGDEFYLMEDSRLVCKADYETAKQREAEATAKRPRTTITAKQLETLKSAYNTSPKPARHVREQLSSETGLDMRVVQVWFQNRRAKEKRLKKDAGRQRWGQYFRNMKRSRGSSKSDKDSIQEGQDSDAEVSFTDEPSMADMGPANGLYSSLGEPAPALGRPVGGLGSFTLDHGGLTGPEQYRELRPGSPYGIPPSPAAPQSLPGPQPLLSSLVYPDTNLSLVPSGPPGGPPPMRVLAGNGPSSDLSTESSSGYPDFPASPASWLDEVDHAQF", "values": [{"measurement": "binding", "setting": "[1]", "value": "binds"}, {"measurement": "binding", "setting": "[2]", "value": "no binding"}, {"measurement": "binding", "setting": "Kdm6b", "value": "binds"}]}
